{"source": "patent US20240301070A1", "about": "“IMPROVING ANTIBODY TOLERABILITY ASSOCIATED WITH INTRAVENOUS ADMINISTRATION” (BIOINVENT INTERNATIONAL AB, priority 2020, published 2024)", "key": {"[1]": {"system": "human subjects with non-hodgkins B-cell lymphoma", "experiment": "IRR grading in clinical studies with BI-1206", "type": "in vivo", "settings": "two subjects receiving BI-1206 (70 mg)", "from_the_text": "The IRR that may be prevented or mitigated as described herein and/or that may be predicted with the method described herein may be any IRR. The adverse event denoted “Infusion related reaction” in the CTCAE version 5.0 is used for disorders characterized by adverse reaction to the infusion of pharmacological or biological substances; belonging to the group of “Injury, poisoning and procedural complications”."}, "wildtype C57/BL6 mice": {"system": "wildtype C57/BL6 mice", "experiment": "Macroscopic IRR scoring (0-2) of mice after antibody injection", "type": "in vivo, mouse", "settings": "two doses pre injection of AT-130-2; data not shown", "method": "Six to eight weeks-old (17-20 g) female C57/BL6 and Balb C mice were obtained from Taconic or Janvier. Mice were injected i.v with mouse anti-CD32B AT-130-2 IgG2a either as a bulk dose of 200 ug/mouse or as a split-dose with 8 ug/mouse followed by 200 ug/mouse. […]\nMice were monitored post injection with regards to changes in behavior and macroscopic symptoms such as isolation, mobility, and fur condition. Macroscopic IRRs scoring system of 0-2 was set up based on the observations.\nThese premedications were given i.p 1h prior to injection i.v of mouse anti-CD32B AT-130-2 IgG2a as a bulk dose of 200 ug/mouse. […]\nMice were monitored post injection with regard to changes in behavior and macroscopic symptoms such as isolation, mobility, and fur condition. Macroscopic IRRs scoring system of 0-2 was set up based on the observations: […]"}}, "note": "Entries after “also recorded” stand apart in the source; their conditions may differ. At least one structure is not confirmed: it was looked up by name or label, or the drawing left a doubt.", "data": [{"smiles": "C[C@@H]1C[C@H]2[C@@H]3CCC4=CC(=O)C=C[C@]4(C)[C@@]3(F)[C@@H](O)C[C@]2(C)[C@@]1(O)C(=O)CO", "note": "[dexamethasone]", "values": [{"measurement": "effect of two doses of dexamethasone on IRRs, platelet decrease and transaminase increase", "setting": "[1]", "value": "relieved"}, {"measurement": "effect of premedication on IRRs and associated toxicities compared with betamethasone", "setting": "wildtype C57/BL6 mice", "value": "same results; also recorded: same effect"}]}]}
